Measured values: PMC3861528
Results are given in words; binding and its absence hold for the method and conditions named. Binding seen in cells or lysates may run through a third protein. Some entries that bind do so weakly or less than the wild type.

Chains of the proteins cited; added tags and fusions are not shown.
UniProt Q08775: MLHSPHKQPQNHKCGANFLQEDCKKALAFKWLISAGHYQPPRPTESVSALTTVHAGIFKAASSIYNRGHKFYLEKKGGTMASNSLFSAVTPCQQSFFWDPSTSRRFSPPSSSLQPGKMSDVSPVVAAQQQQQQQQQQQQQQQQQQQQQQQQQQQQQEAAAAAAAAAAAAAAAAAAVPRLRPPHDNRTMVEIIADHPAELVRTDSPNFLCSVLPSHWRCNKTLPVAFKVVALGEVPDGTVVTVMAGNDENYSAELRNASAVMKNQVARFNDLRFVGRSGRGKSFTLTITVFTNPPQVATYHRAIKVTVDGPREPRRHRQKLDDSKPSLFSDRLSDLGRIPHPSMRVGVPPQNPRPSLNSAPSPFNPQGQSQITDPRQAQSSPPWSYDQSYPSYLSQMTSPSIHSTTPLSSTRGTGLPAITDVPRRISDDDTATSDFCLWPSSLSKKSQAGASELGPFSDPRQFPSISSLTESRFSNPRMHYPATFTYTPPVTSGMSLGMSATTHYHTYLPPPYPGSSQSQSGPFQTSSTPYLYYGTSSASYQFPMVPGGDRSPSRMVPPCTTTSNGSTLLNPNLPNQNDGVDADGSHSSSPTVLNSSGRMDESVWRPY

How the values were obtained:
[1] = target: T1, Vitamin D receptor (human (endogenous in HEK293)) (UniProt P11473); experiment: co-IP; HEK293 cells transfected with pCS4-3Flag-Runx2, cultured without 1,25(OH)2D3; nuclear extracts precipitated with mouse monoclonal anti-Vdr antibody and protein G Sepharose at 4 C; blot with anti-Flag
T1 sequence: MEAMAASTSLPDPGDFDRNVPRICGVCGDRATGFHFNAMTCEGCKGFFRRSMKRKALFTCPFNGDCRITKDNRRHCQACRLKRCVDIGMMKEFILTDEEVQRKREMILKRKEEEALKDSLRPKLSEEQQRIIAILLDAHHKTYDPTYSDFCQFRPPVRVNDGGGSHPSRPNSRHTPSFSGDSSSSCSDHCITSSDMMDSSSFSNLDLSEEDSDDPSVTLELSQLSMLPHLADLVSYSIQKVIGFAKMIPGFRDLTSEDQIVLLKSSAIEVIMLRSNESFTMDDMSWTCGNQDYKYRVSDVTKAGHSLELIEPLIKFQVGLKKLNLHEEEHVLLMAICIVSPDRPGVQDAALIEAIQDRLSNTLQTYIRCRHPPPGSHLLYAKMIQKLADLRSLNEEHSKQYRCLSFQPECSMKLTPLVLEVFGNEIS

[2] = target: T1, Vitamin D receptor (human (endogenous in HEK293)); experiment: co-IP; HEK293 cells transfected with pCS4-3Flag-Runx2 and treated with 10^-7 mol/l 1,25(OH)2D3 for 24 hours; nuclear extracts (130 ug) precipitated with mouse monoclonal anti-Vdr antibody and protein G Sepharose at 4 C; blot with anti-Flag

binding [2]: binds
Substance: 3Flag-Runx2 (runt-related transcription factor 2) (from UniProt Q08775 1-607)
binding [1]: no binding (condition: cells not treated with 1,25(OH)2D3)
